Laboratory results published in PubChem BioAssay (NCATS).
The inconclusive results got no clear call from the source; some entries with a clear call stand among them for comparison. Where the call is inconclusive, the potency comes from a doubtful curve fit. Activity calls are given as the source filed them. Calls follow the shape of the dose curve; as a rule, active = well fitted cell-killing curve with a large enough effect; inconclusive = small, poorly fitted or top-dose-only effect, or effect the other way; inactive = no such curve, though single readings can be large or run the other way.

Assay: Quantitative High-Throughput drug screen in 47 multiple myeloma cell lines against the NCATS MIPE library collection: SKMM1_PLB cell viability assay (AID 1919863); also: nearly all actives have a fitted effect of over 35% in size; as to viability: series mostly up to about 46 µM
Conditions: SKMM1 myeloma viability, CellTiter-Glo ATP, 48 h; viability: stronger effect = lower value
From the text: PI: Beverly A. Mock Ph.D.
Laboratory of Cancer Biology and Genetics,
Center for Cancer Research, National Cancer Institute,
National Institute of Health, Bethesda, Maryland
Drug resistance and disease progression are common in multiple myeloma (MM) patients, underscoring the need for new therapeutic combinations. […] We hypothesized that effective combinations would reduce MYC expression and enhance p16 activity. […] These preclinical data identify potentially useful drug combinations for evaluation in drug-resistant MM and reveal potential mechanisms of combined drug sensitivity.
Described herein is the primary MIPE qHTS used to cherrypick compounds. Validated compounds were then further tested for potential synergistic activiy.
[1] Peat TJ, Gaikwad SM, Dubois W, Gyabaah-Kessie N, Zhang S, Gorjifard S, Phyo Z, Andres M, Hughitt VK, Simpson RM, Miller MA, Girvin AT, Taylor A, Williams D, D'Antonio N, Zhang Y, Rajagopalan A, Flietner E, Wilson K, Zhang X, Shinn P, Klumpp-Thomas C, McKnight C, Itkin Z, Chen L, Kazandijian D, Zhang J, Michalowski AM, Simmons JK, Keats J, Thomas CJ, Mock BA. Drug combinations identified by high-throughput screening promote cell cycle transition and upregulate Smad pathways in myeloma. Cancer Lett. 2023 Aug 1;568:216284. doi: 10.1016/j.canlet.2023.216284. Epub 2023 Jun 24. PMID: 37356470; PMCID: PMC10408729.
SEQUENCE No. (e.g., 1, 2, 3, etc.); […] (e.g., Cells, Incubation, Reagent, etc.); VALUE and DESCRIPTION.
1; Cells; 5 uL; white, solid bottom 1536-well Greiner assay plate.
2; Compounds; 23 nL; Kalypsis pin tool (Wako USA) equipped with a 1536-well pin head to transfer to the assay plates.
3; Incubation; 48 hours; 37C incubation.
4; Reagent;5uL; CellTiter Glo (Promega).
5; Detector; 425V; Luminescence; Viewlux PerkinElmer.
NOTES (numbers refer to Sequence numbers above)
1. The cell-based screening methods employed in this study were like those previously published. Briefly, the corresponding myeloma cell lines were screened in 1,536-well plates with 500 cells, 5-uL per well for inhibition of cell viability (assessed by measuring ATP levels with CellTiterGlo).
2. NCATS MIPE 4.0 library of approved and investigational drugs were added using the Kalypsis pin tool. Wells treated with DMSO only for 100% viability and media only for 0% viability were used as controls.
3. The assay plates were covered and incubated for 48 hours in a 37C, 5% CO2 incubator with controlled humidity.
4. After 48 hours, CellTilter-GloTM luminescent substrate mix (Promega) reagent was added to the assay plate and plates we incubated for 5 min at room temperature.
5. Signal was measured as median relative luminescence units on a ViewLux (PerkinElmer) multiplate reader.
[1] Heske CM, Davis MI, Baumgart JT, Wilson K, Gormally MV, Chen L, Zhang X, Ceribelli M, Duveau DY, Guha R, Ferrer M, Arnaldez FI, Ji J, Tran HL, Zhang Y, Mendoza A, Helman LJ, Thomas CJ. Matrix Screen Identifies Synergistic Combination of PARP Inhibitors and Nicotinamide Phosphoribosyltransferase (NAMPT) Inhibitors in Ewing Sarcoma. Clin Cancer Res. 2017 Dec 1;23(23):7301-7311. doi: 10.1158/1078-0432.CCR-17-1121. Epub 2017 Sep 12. PMID: 28899971; PMCID: PMC6636827.
Potency is read from the fitted curve at half-maximal effect.

For `O=C(O)c1nn(Cc2ccc(Cl)cc2Cl)c2ccccc12`, which Potency is on record?
Its Potency is inconclusive: 11.8 µM [cytotoxic, partial curve, poor fit].

With `CCNC(=O)C[C@@H]1N=C(c2ccc(Cl)cc2)c2cc(OC)ccc2-n2c(C)nnc21` as the compound, how does the Potency read?
The Potency was active: 0.469 µM.

For `CC[C@@H](C(N)=O)N1CCCC1=O`, which Potency is on record?
Its Potency is inconclusive: 10.5 µM [cytotoxic, partial curve, poor fit].

Which Potency does the source give for `C[C@]12COC(=O)C[C@@H]1CC[C@@H]1[C@H]2CC[C@@]2(C)[C@H]1CC[C@]2(C)O` here?
Its Potency is inconclusive: 11.8 µM [cytotoxic, single point].

Which Potency does the source give for `CC1=C2C[C@@H]3[C@@H](CC=C4C[C@@H](O)CC[C@@]43C)[C@@H]2CC[C@]12O[C@H]1C[C@H](C)CN[C@H]1[C@H]2C` here?
Its Potency is inconclusive: 16.6 µM [cytotoxic, partial curve, poor fit].

For `CCOP(=O)(OCC)C(C)NC(=O)N(CCCl)N=O` (stereo not given), which Potency is on record?
Its Potency is inconclusive: 0.0235 µM [rising, full curve, poor fit].

For `CN(C)NC(=O)CCC(=O)O`, which viability is on record?
Its viability is inactive: 111%.

For `COc1ccc2c(c1OC)CN1CCc3cc4c(cc3C1C2)OCO4` (stereo not given), which viability is on record?
The viability was inactive: 104%.

For `COc1ccc2c(c1)[C@]13CCCCC1C(C2)N(C)CC3` (stereo not given in full), which viability is on record?
Its viability is inactive: 120%.

Which Potency does the source give for `O=C(N[C@@H](COc1ccc2[nH]c(=O)[nH]c2c1)c1ccccc1)c1cccn(Cc2ccc(F)c(F)c2)c1=O` here?
The Potency was inconclusive: 37.2 µM [cytotoxic, single point].

For `NC1CC1c1ccccc1` (stereo not given), which Potency is on record?
The Potency was inconclusive: 0.118 µM [cytotoxic, full curve, poor fit].

Which Potency does the source give for `C[C@]12CC[C@@H]3c4ccc(OC(=O)N(CCCl)CCCl)cc4CC[C@H]3[C@@H]1CC[C@@H]2OP(=O)(O)O` here?
Its Potency is inconclusive: 0.0833 µM [cytotoxic, full curve, poor fit].

Which viability does the source give for `CN1C(=O)COc2c(C(=O)NC3CN4CCC3CC4)cc(Cl)cc21` (stereo not given) here?
Its viability is inactive: 152%.

For `CN(C)CCc1ccc(O)cc1`, which viability is on record?
The viability was inactive: 107%.

For `C[C@H]1CCCC=CC2C[C@H](O)C[C@@H]2[C@H](O)C=CC(=O)O1` (stereo not given in full), which Potency is on record?
Its Potency is inconclusive: 0.235 µM [cytotoxic, partial curve, poor fit].

With `CCC(=O)OC1CCC2C3CCC4=CC(=O)CC[C@@]4(C)C3CC[C@]12C` (stereo not given in full) as the compound, how does the Potency read?
Its Potency is inconclusive: 0.0264 µM [rising, full curve].

With `NC1=NC(=O)N2CC12` (stereo not given) as the compound, how does the Potency read?
The Potency was inconclusive: 18.7 µM [cytotoxic, partial curve, poor fit].

Which Potency does the source give for `COC1=CC(C)=C[C@@H](C)[C@@H](O)[C@@H](C)CC(C)=CC=C[C@H](OC)[C@H]([C@@H](C)[C@@H](O)[C@H](C)[C@@]2(O)C[C@@H](O)[C@H](C)[C@@H](C(C)C)O2)OC1=O` here?
Its Potency is inconclusive: 0.0042 µM [cytotoxic, full curve, poor fit].

Which Potency does the source give for `O=[N+]([O-])c1ncc[nH]1` here?
The Potency was inconclusive: 0.132 µM [cytotoxic, full curve, poor fit].

With `CO[C@H]1CCC(O[C@H]2C[C@H]([C@]3(C)CC[C@]4(C[C@H](O)[C@@H](C)[C@@H]([C@@H](C)C=C(C)C(=O)[C@H](C)C[C@H](C)C(=O)O)O4)O3)O[C@]3(O[C@@H]([C@H]4O[C@@](O)(CO)[C@H](C)C[C@H]4C)C[C@H]3C)[C@H]2C)O[C@H]1C` (stereo not given in full) as the compound, how does the Potency read?
The Potency was active: 1.18 µM.

Which Potency does the source give for `C[C@](O)(COc1ccc(C#N)cc1)C(=O)Nc1ccc(C#N)c(C(F)(F)F)c1` here?
The Potency was inconclusive: 0.0418 µM [rising, full curve, poor fit].

Which Potency does the source give for `COc1ccc(C(CN(C)C)C2(O)CCCCC2)cc1` (stereo not given) here?
Its Potency is inconclusive: 0.0012 µM [cytotoxic, full curve, poor fit].

For `CN(C)[C@@H]1C(=O)C(C(N)=O)=C(O)[C@@]2(O)C(=O)C3=C(O)c4c(O)cccc4[C@@](C)(O)[C@H]3[C@H](O)[C@@H]12`, which Potency is on record?
Its Potency is active: 14.8 µM.

For `C=C[C@@H]1CN2CCC1C[C@H]2[C@H](O)c1ccnc2ccccc12` (stereo not given in full), which Potency is on record?
The Potency was active: 20.9 µM.

With `O=C1C=CC[C@@H]2[C@H]3CCCN4CCC[C@@H](CN12)[C@@H]34` as the compound, how does the viability read?
Its viability is inactive: 117%.

With `CC[C@H]1C=CC=CC[C@@H](C)[C@H](O)[C@@](C)(O)C(=O)[C@@H](C)[C@H](O)[C@@H](C)C(=O)[C@@H](C)[C@H](O)[C@@H](C)C=CC(=O)O[C@@H]2[C@@H](C)[C@H](CC1)O[C@]1(CC[C@H](C)[C@H](C[C@@H](C)O)O1)[C@H]2C` as the compound, how does the Potency read?
The Potency was active: 20.9 µM.

With `C[C@](O)(CS(=O)(=O)c1ccc(F)cc1)C(=O)Nc1ccc(C#N)c(C(F)(F)F)c1` as the compound, how does the Potency read?
Its Potency is inconclusive: 16.6 µM [cytotoxic, partial curve, poor fit].

For `COc1cc2cc(c1Cl)N(C)C(=O)C[C@H](OC(=O)C(C)C)[C@]1(C)O[C@H]1[C@H](C)[C@@H]1C[C@@](O)(NC(=O)O1)[C@H](OC)C=CC=C(C)C2`, which viability is on record?
The viability was inactive: 50.1%.

For `CC(=Cc1csc(C)n1)[C@@H]1C[C@H]2O[C@@H]2CCC[C@H](C)[C@@H](O)[C@@H](C)C(=O)C(C)(C)[C@@H](O)CC(=O)O1`, which viability is on record?
The viability was inactive: 81.4%.

For `COc1cc(OC)c(OC)cc1C=O`, which Potency is on record?
Its Potency is inconclusive: 33.2 µM [rising, single point].

For `CC1=C(O)C(=O)C=C2C1=CC=C1[C@@]2(C)CC[C@@]2(C)[C@@H]3C[C@](C)(C(=O)O)CC[C@]3(C)CC[C@]12C`, which Potency is on record?
Its Potency is active: 1.05 µM.

Which Potency does the source give for `CC=C(C)C(=O)O[C@H]1C(C)=C2[C@@H]3OC(=O)[C@@](C)(O)[C@@]3(O)[C@@H](OC(=O)CCC)C[C@](C)(OC(C)=O)[C@@H]2[C@@H]1OC(=O)CCCCCCC` here?
The Potency was active: 0.105 µM.

Which Potency does the source give for `C=C[C@@H]1CN2CCC1C[C@@H]2[C@@H](O)c1ccnc2ccccc12` (stereo not given in full) here?
The Potency was active: 23.5 µM.

With `Cn1c(CCCC(=O)O)nc2cc(N(CCCl)CCCl)ccc21` as the compound, how does the Potency read?
Its Potency is inconclusive: 10.5 µM [cytotoxic, partial curve, poor fit].

For `Cn1cc(C2=C(c3cn(C4CCN(Cc5ccccn5)CC4)c4ccccc34)C(=O)NC2=O)c2ccccc21`, which viability is on record?
The viability was inactive: 86.1%.

Which Potency does the source give for `O=C(O)CCCc1ccc(N(CCCl)CCCl)cc1` here?
The Potency was inconclusive: 0.0235 µM [rising, full curve, poor fit].

Which viability does the source give for `CN[C@@H]1Cc2cccc3[nH]c(=O)n(c23)C1` here?
Its viability is inactive: 93.2%.

For `CC(C)[C@H]1C(=O)N[C@H](CO)Cc2c[nH]c3cccc(c23)N1C`, which Potency is on record?
The Potency was inconclusive: 0.59 µM [cytotoxic, partial curve, poor fit].

For `C[C@]12CC[C@H]3[C@@H](CCC4=CC(=O)CC[C@@]43C)[C@H]1CC[C@H]2OC(=O)CCC1CCCC1`, which Potency is on record?
Its Potency is inconclusive: 37.2 µM [cytotoxic, single point].

For `CCc1c(C(=O)C(N)=O)c2c(OCC(=O)O)cccc2n1Cc1ccccc1`, which Potency is on record?
The Potency was inconclusive: 9.35 µM [cytotoxic, partial curve, poor fit].
